Measurements reported in patent US20070196376A1.
Results are given in words; binding and its absence hold for the method and conditions named. Some results given as binding are weak or reduced against the parent protein; the word gives no strength.

By UniProt entry, the sequences of proteins in these tests, tags left out. Where a name states a change or a piece, a line headed by the entry shows the natural chain unless it says otherwise. Residues count along the entry.
UniProt P05019: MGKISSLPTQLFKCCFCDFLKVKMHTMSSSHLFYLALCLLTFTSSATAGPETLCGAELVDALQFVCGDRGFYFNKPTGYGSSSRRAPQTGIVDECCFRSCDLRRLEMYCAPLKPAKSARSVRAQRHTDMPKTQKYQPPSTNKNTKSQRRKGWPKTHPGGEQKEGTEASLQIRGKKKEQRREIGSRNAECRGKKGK
UniProt P01344: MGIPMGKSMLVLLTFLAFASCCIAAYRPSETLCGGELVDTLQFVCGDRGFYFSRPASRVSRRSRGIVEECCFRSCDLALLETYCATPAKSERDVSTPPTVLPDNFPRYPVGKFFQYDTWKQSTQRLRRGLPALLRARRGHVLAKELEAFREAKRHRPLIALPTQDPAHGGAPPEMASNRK
UniProt P17936, residues 28-291: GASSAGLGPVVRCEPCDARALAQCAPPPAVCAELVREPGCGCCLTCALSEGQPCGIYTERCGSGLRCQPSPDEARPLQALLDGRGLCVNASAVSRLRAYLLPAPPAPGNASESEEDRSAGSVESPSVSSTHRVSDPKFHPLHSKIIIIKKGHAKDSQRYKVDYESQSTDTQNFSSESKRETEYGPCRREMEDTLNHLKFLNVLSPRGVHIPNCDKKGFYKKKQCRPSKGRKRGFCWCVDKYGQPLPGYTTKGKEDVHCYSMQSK

How the values were obtained:
Test in all cases: Biacore, mAb immobilised on CM5, analyte flowed; grade relative to IGF binding
[1] = target: IGF-I/IGFBP-3 complex (UniProt P05019)
[2] = target: IGF-II/IGFBP-3 complex (UniProt P01344)
[3] = target: IGF-binding protein 3 (IGFBP-3) (UniProt P17936)

Measured: binding

B1: mAb 7.159.2 (antibody, V domains shown)
VH: QVQLVQSGAEVKKPGASVKVSCKASGYTFTSYDINWVRQATGQGLEWMGWMNPNSGNTGYAQKFQGRVTMTRNTSISTAYMELSSLRSEDTAVYYCARDPYYYYYGMDVWGQGTTVTVSS
VL: QSVLTQPPSVSAAPGQKVTISCSGSSSNIENNHVSWYQQLPGTAPKLLIYDNNKRPSGIPDRFSGSKSGTSATLGITGLQTGDEADYYCETWDTSLSAGRVFGGGTKLTVLG
binds: all assays above

B2: mAb 7.34.1 (antibody, V domains shown)
VH: QVQLQESGPGLVKPSETLSLTCTVSGGSISSYYWSWIRQPPGRGLEWIGYFFYSGYTNYNPSLKSRVTMSVDTSKNQFSLKLSSVTAADTAVYYCACITGTTKGGMDVWGQGATVTVSS
VL: QSVLTQAPSVSGAPGQRVTISCTGRSSNIGAGYDVHWYQQFPGTAPKLLIYGNSNRPSGVPDRFSGSKSGTSASLAITGLQAEDEADYYCQSYDSSLSGSVFGGGTKLTVLG
binds: all assays above

B3: mAb 7.251.3 (antibody, V domains shown)
VH: QVQLQESGPGLVKPSETLSLTCTVSGGSISSYYWSWIRQPPGKGLEWIGYFFYSGYTNYNPSLKSRVTISVDTSKNQFSLKLSSVTAADTAVYYCACITGTTKGGMDVWGQGTTVTVSS
VL: QSVLTQPPSVSGAPGQRVTISCTGSSSNIGAGYDVHWYQQLPGTAPKLLIYGNNNRPSGVPDRFSGSKSGTSASLAITGLQADDEADYYCQSFDSSLSGSVFGGGTKLTVLG
binds: all assays above
